Measured values from paper PMC13379096.

By UniProt entry, the sequences of proteins in these tests, tags left out.
UniProt Q9JLV5: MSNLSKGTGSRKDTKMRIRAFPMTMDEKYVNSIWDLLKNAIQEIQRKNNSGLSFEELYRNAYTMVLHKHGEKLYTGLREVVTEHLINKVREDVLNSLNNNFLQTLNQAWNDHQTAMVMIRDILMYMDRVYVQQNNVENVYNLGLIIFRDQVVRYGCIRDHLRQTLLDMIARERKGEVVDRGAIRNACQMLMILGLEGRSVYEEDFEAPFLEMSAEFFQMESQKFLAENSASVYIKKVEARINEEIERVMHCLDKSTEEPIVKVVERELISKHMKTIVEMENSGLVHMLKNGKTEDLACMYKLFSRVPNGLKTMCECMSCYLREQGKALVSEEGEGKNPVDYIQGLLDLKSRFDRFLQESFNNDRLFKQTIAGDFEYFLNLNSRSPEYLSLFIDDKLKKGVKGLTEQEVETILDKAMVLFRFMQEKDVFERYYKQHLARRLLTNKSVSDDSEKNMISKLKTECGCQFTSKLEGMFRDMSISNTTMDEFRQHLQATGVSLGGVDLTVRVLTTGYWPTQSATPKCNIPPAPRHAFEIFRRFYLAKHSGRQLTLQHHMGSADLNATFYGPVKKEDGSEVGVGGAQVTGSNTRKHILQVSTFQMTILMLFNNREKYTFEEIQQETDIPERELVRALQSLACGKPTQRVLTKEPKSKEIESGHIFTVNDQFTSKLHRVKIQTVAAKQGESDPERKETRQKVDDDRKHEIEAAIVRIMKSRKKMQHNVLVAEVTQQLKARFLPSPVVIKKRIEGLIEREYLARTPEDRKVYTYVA
UniProt P61202: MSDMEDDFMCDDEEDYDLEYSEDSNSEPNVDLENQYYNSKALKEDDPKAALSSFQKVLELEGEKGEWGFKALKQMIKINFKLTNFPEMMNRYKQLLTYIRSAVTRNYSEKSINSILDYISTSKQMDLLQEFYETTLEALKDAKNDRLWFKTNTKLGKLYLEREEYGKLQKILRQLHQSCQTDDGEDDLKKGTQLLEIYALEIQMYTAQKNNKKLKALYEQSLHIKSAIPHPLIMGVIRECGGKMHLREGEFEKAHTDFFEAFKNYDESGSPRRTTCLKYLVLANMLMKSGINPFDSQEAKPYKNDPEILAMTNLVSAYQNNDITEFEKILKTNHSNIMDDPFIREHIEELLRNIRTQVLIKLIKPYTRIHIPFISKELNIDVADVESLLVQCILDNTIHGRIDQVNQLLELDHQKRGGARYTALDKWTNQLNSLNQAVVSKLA
UniProt O88543: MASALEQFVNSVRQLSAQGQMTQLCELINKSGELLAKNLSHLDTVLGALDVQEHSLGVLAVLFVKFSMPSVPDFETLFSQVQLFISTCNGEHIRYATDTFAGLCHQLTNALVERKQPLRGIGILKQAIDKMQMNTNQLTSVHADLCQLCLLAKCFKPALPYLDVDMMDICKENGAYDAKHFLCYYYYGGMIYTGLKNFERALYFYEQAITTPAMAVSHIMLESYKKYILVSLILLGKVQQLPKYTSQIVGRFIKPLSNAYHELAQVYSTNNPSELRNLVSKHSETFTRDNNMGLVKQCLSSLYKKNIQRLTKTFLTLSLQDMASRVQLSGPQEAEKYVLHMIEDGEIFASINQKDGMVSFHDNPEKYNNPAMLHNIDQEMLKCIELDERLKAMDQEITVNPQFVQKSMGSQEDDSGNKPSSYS
UniProt O88545: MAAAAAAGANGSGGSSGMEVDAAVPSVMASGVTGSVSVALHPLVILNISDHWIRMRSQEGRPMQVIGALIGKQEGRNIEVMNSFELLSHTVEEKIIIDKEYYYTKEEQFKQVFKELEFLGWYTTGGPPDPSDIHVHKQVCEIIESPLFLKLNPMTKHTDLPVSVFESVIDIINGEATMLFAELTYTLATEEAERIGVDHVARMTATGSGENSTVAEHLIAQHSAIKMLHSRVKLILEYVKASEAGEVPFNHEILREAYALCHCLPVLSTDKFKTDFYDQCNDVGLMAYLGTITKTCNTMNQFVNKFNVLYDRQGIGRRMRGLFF
UniProt Q8VBV7: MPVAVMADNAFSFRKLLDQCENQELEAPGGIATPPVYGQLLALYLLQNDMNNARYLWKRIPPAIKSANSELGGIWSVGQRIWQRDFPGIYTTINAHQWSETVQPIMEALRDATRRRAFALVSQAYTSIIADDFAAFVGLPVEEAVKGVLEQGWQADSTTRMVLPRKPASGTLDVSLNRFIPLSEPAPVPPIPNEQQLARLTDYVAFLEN
UniProt Q9WTX6: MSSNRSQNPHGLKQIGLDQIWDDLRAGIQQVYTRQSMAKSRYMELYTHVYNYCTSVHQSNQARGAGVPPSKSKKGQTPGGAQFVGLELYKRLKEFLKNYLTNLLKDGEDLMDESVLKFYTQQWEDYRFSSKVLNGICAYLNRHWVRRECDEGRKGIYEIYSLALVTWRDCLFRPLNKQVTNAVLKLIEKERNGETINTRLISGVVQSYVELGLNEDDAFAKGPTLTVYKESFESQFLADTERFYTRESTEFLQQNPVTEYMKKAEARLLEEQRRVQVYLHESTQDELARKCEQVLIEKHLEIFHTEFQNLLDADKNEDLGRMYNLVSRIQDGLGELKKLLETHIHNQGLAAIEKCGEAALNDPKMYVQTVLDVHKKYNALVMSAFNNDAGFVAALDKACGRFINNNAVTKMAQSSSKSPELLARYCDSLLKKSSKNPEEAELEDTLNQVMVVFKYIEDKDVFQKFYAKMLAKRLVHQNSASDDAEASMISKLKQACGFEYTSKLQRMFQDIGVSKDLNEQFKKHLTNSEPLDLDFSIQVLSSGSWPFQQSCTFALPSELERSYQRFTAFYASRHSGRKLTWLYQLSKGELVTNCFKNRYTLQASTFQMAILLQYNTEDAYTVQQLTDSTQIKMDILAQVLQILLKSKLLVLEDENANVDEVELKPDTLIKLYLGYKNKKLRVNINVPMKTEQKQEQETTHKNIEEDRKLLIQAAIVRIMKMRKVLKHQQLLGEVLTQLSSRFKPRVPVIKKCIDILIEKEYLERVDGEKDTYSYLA

B1: UBE2M (protein, UniProt P61082 1-183)
chain: MIKLFSLKQQKKEEESAGGTKGSSKKASAAQLRIQKDINELNLPKTCDISFSDPDDLLNFKLVICPDEGFYKSGKFVFSFKVGQGYPHDPPKVKCETMVYHPNIDLEGNVCLNILREDWKPVLTINSIIYGLQYLFLEPNPEDPLNKEAAEVLQNNRRLFEQNVQRSMRGGYIGSTYFERCLK
B2: CAND1 (protein, UniProt Q6ZQ38 1-1230)
chain: MASASYHISNLLEKMTSSDKDFRFMATNDLMTELQKDSIKLDDDSERKVVKMILRLLEDKNGEVQNLAVKCLGPLVSKVKEYQVETIVDTLCTNMLSDKEQLRDISSIGLKTVIGELPPASSGSALAANVCKKITGRLTSAIAKQEDVSVQLEALDIMADMLSRQGGLLVNFHPSILTCLLPQLTSPRLAVRKRTIIALGHLVMSCGNIVFVDLIEHLLSELSKNDSMSTTRTYIQCIAAISRQAGHRIGEYLEKIIPLVVKFCNVDDDELREYCIQAFESFVRRCPKEVYPHVSTIINICLKYLTYDPNYNYDDEDEDENAMDADGGDDDDQGSDDEYSDDDDMSWKVRRAAAKCLDAVVSTRHEMLPEFYKTVSPALIARFKEREENVKADVFHAYLSLLKQTRPVQSWLCDPDAMEQGDTPLTMLQSQVPNIVKALHKQMKEKSVKTRQCCFNMLTELVNVLPGALTQHIPVLVPGIIFSLNDKSSSSNLKIDALSCLYVILCNHSPQVFHPHVQALVPPVVACVGDPFYKITSEALLVTQQLVKVIRPLDQPSSFDATPYIKDLFTCTIKRLKAADIDQEVKERAISCMGQIICNLGDNLGPDLSNTLQIFLERLKNEITRLTTVKALTLIAGSPLKIDLRPVLGEGVPILASFLRKNQRALKLGTLSALDILIKNYSDSLTAAMIDAVLDELPPLISESDMHVSQMAISFLTTLAKVYPSSLSKISGSILNELIGLVRSPLLQGGALSAMLDFFQALVVTGTNNLGYMDLLRMLTGPVYSQSTALTHKQSYYSIAKCVAALTRACPKEGPAVVGQFIQDVKNSRSTDSIRLLALLSLGEVGHHIDLSGQLELKSVILEAFSSPSEEVKSAASYALGSISVGNLPEYLPFVLQEITSQPKRQYLLLHSLKEIISSASVAGLKPYVENIWALLLKHCECAEEGTRNVVAECLGKLTLIDPETLLPRLKGYLISGSSYARSSVVTAVKFTISDHPQPIDPLLKNCIGDFLKTLEDPDLNVRRVALVTFNSAAHNKPSLIRDLLDSVLPHLYNETKVRKELIREVEMGPFKHTVDDGLDIRKAAFECMYTLLDSCLDRLDIFEFLNHVEDGLKDHYDIKMLTFLMLVRLSTLCPSAVLQRLDRLVEPLRATCTTKVKANSVKQEFEKQDELKRSAMRAVAALLTIPEAEKSPLMSEFQSQISSNPELAAIFESIQKDSSSTNLESMDTS
B3: COPS7a (protein, UniProt Q9CZ04 1-275)
chain: MSAEVKVTGQNQEQFLLLAKSAKGAALATLIHQVLEAPGVYVFGELLDMPNVRELAESDFASTFRLLTVFAYGTYADYLAEARNLPPLTDAQKNKLRHLSVVTLAAKVKCIPYAVLLEALALRNVRQLEDLVIEAVYADVLRGSLDQRNQRLEVDYSIGRDIQRQDLSAIAQTLQEWCVGCEVVLSGIEEQVSRANQHKEQQLGLKQQIESEVANLKKTIKVTTAAAAAATSQDPEQHLTELREPASGTNQRQPSKKASKGKGLRGSAKIWSKSN

The molecules below were run against T1, GST-tagged ATOH1 (mouse) (UniProt P48985) (assay: affinity purification with mass spectrometry; GST-ATOH1 transfected into N2a cells (alone or plus MEIS1-FL), pulled down, bound molecules by LC-MS/MS; single biological replicate).
T1 sequence: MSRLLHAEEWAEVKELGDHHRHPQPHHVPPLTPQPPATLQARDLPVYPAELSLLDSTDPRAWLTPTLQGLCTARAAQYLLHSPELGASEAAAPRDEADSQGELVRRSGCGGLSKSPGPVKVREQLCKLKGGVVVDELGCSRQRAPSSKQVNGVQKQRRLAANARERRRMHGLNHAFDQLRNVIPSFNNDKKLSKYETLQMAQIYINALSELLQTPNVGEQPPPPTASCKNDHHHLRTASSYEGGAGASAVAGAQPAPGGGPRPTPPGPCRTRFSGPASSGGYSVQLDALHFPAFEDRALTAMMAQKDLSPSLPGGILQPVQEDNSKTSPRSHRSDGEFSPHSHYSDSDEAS

binding, binds:
Cullin-3 (CUL3) (from UniProt Q9JLV5 1-768), B1, B2

Each molecule was assayed against T2, GST-tagged MEIS1-FL (mouse) (UniProt Q60954) (assay: affinity purification with mass spectrometry; GST-MEIS1-FL transfected into N2a cells, precipitated with glutathione beads, LC-MS/MS; single biological replicate).
T2 sequence: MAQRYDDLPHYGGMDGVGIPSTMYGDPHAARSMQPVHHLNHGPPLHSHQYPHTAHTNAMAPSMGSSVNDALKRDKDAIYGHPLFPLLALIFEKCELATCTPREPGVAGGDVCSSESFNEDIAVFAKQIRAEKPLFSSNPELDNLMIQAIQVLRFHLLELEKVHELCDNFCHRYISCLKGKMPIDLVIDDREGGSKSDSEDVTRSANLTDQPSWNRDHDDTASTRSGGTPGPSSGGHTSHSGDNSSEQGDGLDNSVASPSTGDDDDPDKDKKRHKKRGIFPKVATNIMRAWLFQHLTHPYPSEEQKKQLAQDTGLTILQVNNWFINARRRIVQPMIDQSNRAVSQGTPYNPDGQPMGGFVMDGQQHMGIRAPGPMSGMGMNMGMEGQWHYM

binding, binds:
COPS2 (from UniProt P61202 1-443), COPS3 (from UniProt O88543 1-423), COPS4 (from UniProt O88544 1-406), COPS6 (of N2a cells) (from UniProt O88545 1-324), COPS8 (from UniProt Q8VBV7 1-209), CUL1 (from UniProt Q9WTX6 1-776), B3

No constants are given. Whether binding was seen depends on the method and setting. Binding seen in cells or lysates may run through a third protein. Here binding means that the protein was enriched with, or labelled near, the bait; the list need not be complete. Where a sequence is shown, tags or fusion partners need not be part of it.
